The source of these data is article PMC6351035.

Amino acid sequences for entries named in this document (tags omitted). A change or cut given only in a name is not applied to a line headed by its entry. Residues count along the entry.
UniProt O95831: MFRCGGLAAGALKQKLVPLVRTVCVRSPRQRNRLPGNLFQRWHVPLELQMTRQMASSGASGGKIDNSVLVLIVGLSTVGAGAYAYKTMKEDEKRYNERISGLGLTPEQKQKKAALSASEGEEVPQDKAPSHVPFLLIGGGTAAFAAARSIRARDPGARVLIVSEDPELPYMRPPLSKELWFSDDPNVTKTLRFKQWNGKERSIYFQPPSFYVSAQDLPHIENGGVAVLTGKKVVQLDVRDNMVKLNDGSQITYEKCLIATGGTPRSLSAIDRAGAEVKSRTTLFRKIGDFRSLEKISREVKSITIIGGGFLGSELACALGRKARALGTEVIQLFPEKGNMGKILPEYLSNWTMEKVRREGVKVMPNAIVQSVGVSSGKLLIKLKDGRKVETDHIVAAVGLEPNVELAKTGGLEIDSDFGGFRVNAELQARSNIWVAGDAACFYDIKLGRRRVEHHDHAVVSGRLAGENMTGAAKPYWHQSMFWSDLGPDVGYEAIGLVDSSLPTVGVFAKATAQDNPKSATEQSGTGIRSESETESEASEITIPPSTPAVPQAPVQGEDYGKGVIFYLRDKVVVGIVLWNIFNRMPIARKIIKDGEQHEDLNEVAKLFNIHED
UniProt P38646, residues 47-679: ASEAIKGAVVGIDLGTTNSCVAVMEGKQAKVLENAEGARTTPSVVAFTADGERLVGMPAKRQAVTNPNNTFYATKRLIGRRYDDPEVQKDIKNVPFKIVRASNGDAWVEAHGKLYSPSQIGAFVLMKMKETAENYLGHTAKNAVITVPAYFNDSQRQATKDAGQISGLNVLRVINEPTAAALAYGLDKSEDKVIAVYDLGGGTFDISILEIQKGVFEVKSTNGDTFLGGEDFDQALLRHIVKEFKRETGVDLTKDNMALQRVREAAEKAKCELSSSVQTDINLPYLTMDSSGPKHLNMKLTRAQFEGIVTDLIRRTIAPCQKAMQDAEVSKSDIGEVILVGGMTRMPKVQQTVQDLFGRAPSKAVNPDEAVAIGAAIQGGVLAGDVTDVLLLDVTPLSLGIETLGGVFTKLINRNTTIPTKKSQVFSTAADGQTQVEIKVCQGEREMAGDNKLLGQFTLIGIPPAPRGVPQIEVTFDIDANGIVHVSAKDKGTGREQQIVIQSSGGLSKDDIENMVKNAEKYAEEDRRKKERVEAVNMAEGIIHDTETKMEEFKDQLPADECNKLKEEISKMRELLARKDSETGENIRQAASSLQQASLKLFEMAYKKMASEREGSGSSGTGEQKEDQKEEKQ

In the test the target is fAIF carrying the C-terminal fragment of YFP (YC-AIF) (UniProt O95831). In words: split reporter; BiFC with split YFP in co-transfected U87MG cells, confocal microscopy 24 h post-transfection.

No constants are given. Whether binding was seen depends on the method and setting. Binding seen in cells or lysates may run through a third protein. Binding can be weak; no strength is given.

As for “mortalin bound to the N-terminal fragment of YFP (Mort-YN) (from UniProt P38646 47-679)”, the binding entry is “binds”.
